In data set [1] the test system is multidrug-resistant Dd2 strain of Plasmodium falciparum (PfDd2). The experiment in a line: Antiplasmodial SYBR Green I fluorescence assay, PfDd2 strain. Format: cell-based. The note with it: for SI_PfDd2: SI = CC50 (RAW)/IC50 (PfDd2); for Resistance Index (RI): ratio between IC50 values for 3D7 and Dd2 strains. An excerpt: (§1) The parasite strains used in this study are continuously cultured at the Antimicrobial and Biocontrol Agents Unit of the University of Yaoundé I, and were graciously provided by BEI Resources (https://www.beiresources.org (accessed on 16 February 2019)). They comprise the Leishmania donovani strain (1S(MHOM/SD/62/1S), the multiresistant (PfDd2), and the chloroquine-sensitive (Pf3D7-(MRA-102)) strains of Plasmodium falciparum. RPMI 1640 media supplemented with 0.2% sodium bicarbonate (Sigma Aldrich, Billings, MT, USA), 0.5% Albumax II (Gibco), 1% hypoxanthine 100X (Gibco, Billings, MT, USA), 25 mM HEPES, and 0.04% gentamicin (Sigma Aldrich) was used to sustain P. falciparum strains in sterile petri dishes. Fresh red blood cells from healthy O^+ human volunteers were also added to the medium. These cells were suspended at 4% hematocrit (v/v) and incubated at 37 °C in a humidified environment with 5% CO2. To regularly maintain the culture, fresh medium was added to the culture every day. Thin blood smears stained with 10% Giemsa were used to microscopically monitor cell-cycle transition and parasitemia under immersion oil.
(§2) The antiplasmodial efficacy of the samples was evaluated using the SYBR Green I-based fluorescence assay, as previously reported by Smilkstein et al., on a sorbitol-synchronized ring stage culture of Plasmodium falciparum (PfDd2 and Pf3D7 strains). The test relies on the development of intense fluorescence following SYBR green binding to the exposed DNA found in wells containing healthy cells. Ninety microliters of parasites prepared with 1% hematocrit and 2% parasitemia and 10 μL of test sample extracts, fractions, isolated chemicals, chloroquine, and artemisinin were each added in triplicate into wells of a flat-bottomed microplate. The final test concentration values for the samples varied from 50 μg/mL-0.08 μg/mL and 100 μg/mL-0.16 μg/mL for extract/fractions. Following a 72 h incubation at 37 °C, 100 μL of SYBR Green I solution prepared with lysis buffer (0.2 μL of 10,000 SYBR Green I per mL of lysis buffer) made of EDTA (5 mM), Tris (20 mM; pH 7.5), Triton X-100 (0.08%; v/v), and saponin (0.008%; m/v) was added to each well. Fluorescence measurements were taken using an Infinite M200 microplate reader (Tecan, MT, USA) at emission and excitation wavelengths of 538 and 485 nm, respectively.
(§3) The resulting fluorescence readings were used to calculate the growth inhibition percentages relative to the negative control for each sample and for each of the tested doses. GraphPad Prism 8.0 software was used to generate concentration-response curves from the nonlinear regression fit to determine the median inhibitory or cytotoxic concentration (IC50/CC50). The resistance index (RI) for antiplasmodial tests was calculated as the ratio between the samples’ IC50 values for the chloroquine-sensitive strain 3D7 and the multiresistant strain Dd2 [69]. Inhibitors with an RI value below 1 were considered to act preferentially on the resistant strain. Based on each inhibitor’s antiparasitic efficacy (IC50) and cell toxicity (CC50), selectivity indices (SI) were calculated [SI = CC50 (RAW)/IC50 (Parasites)]. Samples were classified as poorly toxic to RAW cells if their SI values were greater than 10 [70].

Data set [2] relates to chloroquine-sensitive 3D7 strain of Plasmodium falciparum (Pf3D7). The experiment in a line: Antiplasmodial SYBR Green I fluorescence assay, Pf3D7 strain. The data set is classed as cell-based. Particulars: SI = CC50 (RAW)/IC50 (Pf3D7).
Excerpt: as §1, §2, §3

As to `CC1(C)CC[C@]2(C(=O)O)CC[C@]3(C)C(=CC[C@@H]4[C@@]5(C)CC[C@H](O)C(C)(C)[C@@H]5CC[C@]43C)[C@@H]2C1` [Oleanolic acid (7), oleanolic acid], in data set [1], the SI_PfDd2 entry is “˃9.17” and the “Resistance Index (RI)” value is given as 0.47. Also, the SI_Pf3D7 entry in data set [2] is “˃4.27”. In the same order, the values of `C=C1C2C(OC3CC(=O)OC4(C)COC(=O)CC4C32C)C(OC(=O)C(O)C(C)CC)C2(C)C(c3ccoc3)CC(=O)C12O` (stereo not drawn) [Rohituka-3 (5), rohituka-3] are more than 25.13, 0.23 and more than 5.88. On to `C=C1[C@@H]2CC[C@@]3(C)[C@H](c4ccoc4)OC(=O)C[C@]13O[C@H]1CC(=O)C(C)(C)[C@H](CC(=O)OC)[C@]12C` [Methylangolensate (4), methyl angolensate], for which the “Resistance Index (RI)” value in data set [1] came to 0.12. The molecule also showed an SI_Pf3D7 in data set [2] of 0.44. `COC(=O)[C@H](O)[C@@H]1[C@@]2(C)[C@H]3CC[C@@]4(C)[C@H](c5ccoc5)OC(=O)C[C@@]45O[C@H]4C(=O)[C@@]1(C)C[C@]2(OC(C)=O)[C@@H]4[C@@]35O` [Khayanolide E (6), khayanolide E]: the “Resistance Index (RI)” value in data set [1] was 0.24. On to `COc1ccc(-c2cc(=O)c3c(O)c(OC)c(OC)cc3o2)cc1OC` [Belamcanidin (8), Belamcanidin], for which, in data set [1], the SI_PfDd2 was more than 7.84 and the “Resistance Index (RI)” value was 0.48. Moreover, the SI_Pf3D7 in data set [2] is on record as more than 3.82. Consider `Oc1cc(O)c2c(c1)O[C@H](c1ccc(O)c(O)c1)[C@@H](O)C2` [Catechin (9), catechin], for which the SI_Pf3D7 in data set [2] is on record as more than 3.57. On the same count and under the same terms, the same measure for `C=C(C)[C@@H]1CC[C@]2(C(=O)O)CC[C@]3(C)[C@H](CC[C@@H]4[C@@]5(C)C[C@@H](O)[C@H](O)C(C)(C)[C@@H]5CC[C@]43C)[C@@H]12` [Alphitolic acid (3), alphitolic acid]: 0.24. For `CC1(C)CC[C@]2(C(=O)O)CC[C@]3(C)C(=CCC4[C@@]5(C)C[C@@H](O)[C@H](O)C(CO)(CO)C5CC[C@]43C)C2[C@@H]1O` (stereo partly drawn) [Bellericagenin B (2), bellericagenin B], the “Resistance Index (RI)” value in data set [1] is given as 0.31.

For the origin of these results see publication PMC10609173, “Antiplasmodial and Antileishmanial Activities of a New Limonoid and Other Constituents from the Stem Bark of Khaya senegalensis” (Molecules, 2023).
